Step yield data for one substance are collected here from patent US5620959A (Glaxo Wellcome Inc., priority 1990, dated 1997).

Strings that start with PEPTIDE1 are HELM notation: dots part the residues, brackets hold end groups and non-standard residues.

This data set is described as follows: general procedure: Boc solid-phase peptide synthesis; p-methylbenzhydrylamine (MBHA) resin, Advanced Chemtech, 0.90-0.97 meq/g; BOP, 4-Methylmorpholine. The note with it: purification step, based on HPLC.

Regarding “PEPTIDE1{[PhPr].H.W.A.V.[dA].H.[D-Propsi].F.[am]}$$$$V2.0”, the step yield amounted to 12% yield based on HPLC.
